These are yes or no findings as the source states them, for the method shown. Binding seen in cells or lysates may run through a third protein. Some entries that bind do so weakly or less than the wild type.
How the values were obtained:
[1] = molecular target: Sec5 (endogenous exocyst subunit) (mouse (endogenous in NIH/3T3)) (UniProt Q9D4H1); test: proximity ligation; Duolink PLA kit with anti-Gli2 and anti-Sec5 antibodies in NIH/3T3 Flp-In mouse fibroblasts
[2] = molecular target: Sec3 (endogenous exocyst subunit) (UniProt Q8R3S6); test: co-IP; endogenous proteins, co-immunoprecipitation with Sec3 (Fig. 2a, Supplementary Fig. S1a); beads and cells not told in the text shown
[3] = molecular target: Sec5 (endogenous exocyst subunit) (mouse (endogenous in NIH/3T3)) (UniProt Q9D4H1); test: co-IP; endogenous proteins; beads coated with anti-Sec5 antibodies, rabbit IgG as control; lysis buffer 50 mM Tris pH 7.4, 1% NP-40, 150 mM NaCl, 0.25% sodium deoxycholate; overnight 4 °C; western blot

Sequences of proteins named here, by UniProt entry; tags and fusion partners are left off.
UniProt Q9D4H1: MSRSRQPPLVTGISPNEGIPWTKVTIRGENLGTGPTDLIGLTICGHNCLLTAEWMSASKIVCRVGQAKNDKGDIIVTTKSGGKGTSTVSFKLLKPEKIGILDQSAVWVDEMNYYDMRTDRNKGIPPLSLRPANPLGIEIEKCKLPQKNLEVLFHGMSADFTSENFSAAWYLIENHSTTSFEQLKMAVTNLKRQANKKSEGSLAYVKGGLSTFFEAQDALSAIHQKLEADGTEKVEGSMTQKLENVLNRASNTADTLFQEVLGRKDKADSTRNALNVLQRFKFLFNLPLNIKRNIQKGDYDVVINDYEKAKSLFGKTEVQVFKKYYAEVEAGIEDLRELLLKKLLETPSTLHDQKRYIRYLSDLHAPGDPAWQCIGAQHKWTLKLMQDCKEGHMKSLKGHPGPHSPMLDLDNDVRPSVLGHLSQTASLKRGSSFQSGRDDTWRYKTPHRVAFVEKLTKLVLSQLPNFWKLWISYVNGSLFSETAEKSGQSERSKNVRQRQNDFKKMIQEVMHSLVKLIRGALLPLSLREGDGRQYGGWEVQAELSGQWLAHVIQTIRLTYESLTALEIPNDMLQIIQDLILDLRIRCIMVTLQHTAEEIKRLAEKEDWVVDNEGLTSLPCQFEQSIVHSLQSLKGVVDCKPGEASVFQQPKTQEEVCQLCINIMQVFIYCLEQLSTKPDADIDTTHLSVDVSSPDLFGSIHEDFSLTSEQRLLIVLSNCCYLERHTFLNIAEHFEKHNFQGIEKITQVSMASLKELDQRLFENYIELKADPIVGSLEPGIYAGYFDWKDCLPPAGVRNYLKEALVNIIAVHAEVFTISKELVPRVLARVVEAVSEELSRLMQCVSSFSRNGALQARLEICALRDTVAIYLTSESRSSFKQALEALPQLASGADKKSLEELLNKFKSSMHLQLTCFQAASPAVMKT
UniProt Q8R3S6: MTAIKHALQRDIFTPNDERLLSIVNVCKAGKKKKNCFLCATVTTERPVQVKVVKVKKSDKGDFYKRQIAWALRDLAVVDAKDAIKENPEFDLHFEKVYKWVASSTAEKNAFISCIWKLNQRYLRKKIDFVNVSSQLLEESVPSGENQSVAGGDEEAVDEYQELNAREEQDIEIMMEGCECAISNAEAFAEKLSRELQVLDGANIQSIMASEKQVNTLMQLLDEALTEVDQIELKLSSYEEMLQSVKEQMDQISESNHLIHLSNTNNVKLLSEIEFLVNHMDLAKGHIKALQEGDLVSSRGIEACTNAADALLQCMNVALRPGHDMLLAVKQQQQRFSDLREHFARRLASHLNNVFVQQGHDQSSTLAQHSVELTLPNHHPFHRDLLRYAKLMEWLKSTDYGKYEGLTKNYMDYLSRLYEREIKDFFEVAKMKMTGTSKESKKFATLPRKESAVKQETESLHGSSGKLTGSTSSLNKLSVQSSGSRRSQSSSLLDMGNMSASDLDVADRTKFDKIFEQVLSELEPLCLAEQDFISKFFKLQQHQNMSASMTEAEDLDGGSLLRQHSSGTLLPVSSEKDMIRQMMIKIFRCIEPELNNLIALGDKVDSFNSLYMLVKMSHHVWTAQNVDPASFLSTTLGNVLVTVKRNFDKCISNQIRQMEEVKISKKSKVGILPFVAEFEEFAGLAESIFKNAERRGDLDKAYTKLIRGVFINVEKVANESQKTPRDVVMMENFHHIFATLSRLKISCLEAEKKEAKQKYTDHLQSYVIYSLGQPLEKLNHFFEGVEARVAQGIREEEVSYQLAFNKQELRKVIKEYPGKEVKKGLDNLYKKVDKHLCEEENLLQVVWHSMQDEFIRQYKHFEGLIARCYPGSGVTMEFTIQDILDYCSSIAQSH
UniProt Q0VGT2: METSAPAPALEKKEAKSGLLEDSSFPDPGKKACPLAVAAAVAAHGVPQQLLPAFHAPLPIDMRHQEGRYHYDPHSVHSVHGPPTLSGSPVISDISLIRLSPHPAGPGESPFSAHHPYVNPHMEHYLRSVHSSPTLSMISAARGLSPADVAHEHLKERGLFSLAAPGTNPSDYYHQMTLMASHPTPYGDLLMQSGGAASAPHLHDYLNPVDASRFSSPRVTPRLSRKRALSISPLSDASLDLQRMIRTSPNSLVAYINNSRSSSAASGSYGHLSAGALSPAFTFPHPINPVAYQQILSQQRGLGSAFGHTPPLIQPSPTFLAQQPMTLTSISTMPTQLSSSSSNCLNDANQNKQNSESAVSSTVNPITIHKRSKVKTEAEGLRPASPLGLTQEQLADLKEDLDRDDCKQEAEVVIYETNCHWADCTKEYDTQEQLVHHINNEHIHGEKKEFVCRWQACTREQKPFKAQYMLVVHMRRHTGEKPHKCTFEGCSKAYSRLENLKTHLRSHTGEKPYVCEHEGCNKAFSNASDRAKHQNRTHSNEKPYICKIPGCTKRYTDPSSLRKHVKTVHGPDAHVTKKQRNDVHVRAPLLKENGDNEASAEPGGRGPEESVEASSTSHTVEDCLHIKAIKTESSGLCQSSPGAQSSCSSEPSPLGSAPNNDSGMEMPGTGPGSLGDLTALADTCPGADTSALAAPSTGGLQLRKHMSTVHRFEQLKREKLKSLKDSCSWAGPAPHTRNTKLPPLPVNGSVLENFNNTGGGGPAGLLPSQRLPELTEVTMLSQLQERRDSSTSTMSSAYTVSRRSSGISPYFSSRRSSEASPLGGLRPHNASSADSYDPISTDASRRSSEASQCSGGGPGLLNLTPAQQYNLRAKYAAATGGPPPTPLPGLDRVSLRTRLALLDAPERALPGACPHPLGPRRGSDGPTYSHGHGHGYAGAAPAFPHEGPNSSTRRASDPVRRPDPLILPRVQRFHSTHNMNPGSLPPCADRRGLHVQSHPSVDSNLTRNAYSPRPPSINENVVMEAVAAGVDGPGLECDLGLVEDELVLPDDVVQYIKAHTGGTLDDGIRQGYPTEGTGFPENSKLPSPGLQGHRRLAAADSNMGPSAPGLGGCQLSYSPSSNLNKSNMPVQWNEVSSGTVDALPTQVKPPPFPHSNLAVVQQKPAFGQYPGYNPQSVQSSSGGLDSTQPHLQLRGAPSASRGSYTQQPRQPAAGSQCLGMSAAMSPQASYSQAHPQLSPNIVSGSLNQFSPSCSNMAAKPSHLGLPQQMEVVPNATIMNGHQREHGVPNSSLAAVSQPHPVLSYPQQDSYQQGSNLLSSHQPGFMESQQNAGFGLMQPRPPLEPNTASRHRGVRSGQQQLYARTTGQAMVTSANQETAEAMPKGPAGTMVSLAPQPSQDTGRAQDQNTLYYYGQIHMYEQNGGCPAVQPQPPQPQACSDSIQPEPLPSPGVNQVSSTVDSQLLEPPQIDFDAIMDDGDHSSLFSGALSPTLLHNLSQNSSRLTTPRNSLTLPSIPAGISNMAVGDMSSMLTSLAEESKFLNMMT
UniProt Q61602: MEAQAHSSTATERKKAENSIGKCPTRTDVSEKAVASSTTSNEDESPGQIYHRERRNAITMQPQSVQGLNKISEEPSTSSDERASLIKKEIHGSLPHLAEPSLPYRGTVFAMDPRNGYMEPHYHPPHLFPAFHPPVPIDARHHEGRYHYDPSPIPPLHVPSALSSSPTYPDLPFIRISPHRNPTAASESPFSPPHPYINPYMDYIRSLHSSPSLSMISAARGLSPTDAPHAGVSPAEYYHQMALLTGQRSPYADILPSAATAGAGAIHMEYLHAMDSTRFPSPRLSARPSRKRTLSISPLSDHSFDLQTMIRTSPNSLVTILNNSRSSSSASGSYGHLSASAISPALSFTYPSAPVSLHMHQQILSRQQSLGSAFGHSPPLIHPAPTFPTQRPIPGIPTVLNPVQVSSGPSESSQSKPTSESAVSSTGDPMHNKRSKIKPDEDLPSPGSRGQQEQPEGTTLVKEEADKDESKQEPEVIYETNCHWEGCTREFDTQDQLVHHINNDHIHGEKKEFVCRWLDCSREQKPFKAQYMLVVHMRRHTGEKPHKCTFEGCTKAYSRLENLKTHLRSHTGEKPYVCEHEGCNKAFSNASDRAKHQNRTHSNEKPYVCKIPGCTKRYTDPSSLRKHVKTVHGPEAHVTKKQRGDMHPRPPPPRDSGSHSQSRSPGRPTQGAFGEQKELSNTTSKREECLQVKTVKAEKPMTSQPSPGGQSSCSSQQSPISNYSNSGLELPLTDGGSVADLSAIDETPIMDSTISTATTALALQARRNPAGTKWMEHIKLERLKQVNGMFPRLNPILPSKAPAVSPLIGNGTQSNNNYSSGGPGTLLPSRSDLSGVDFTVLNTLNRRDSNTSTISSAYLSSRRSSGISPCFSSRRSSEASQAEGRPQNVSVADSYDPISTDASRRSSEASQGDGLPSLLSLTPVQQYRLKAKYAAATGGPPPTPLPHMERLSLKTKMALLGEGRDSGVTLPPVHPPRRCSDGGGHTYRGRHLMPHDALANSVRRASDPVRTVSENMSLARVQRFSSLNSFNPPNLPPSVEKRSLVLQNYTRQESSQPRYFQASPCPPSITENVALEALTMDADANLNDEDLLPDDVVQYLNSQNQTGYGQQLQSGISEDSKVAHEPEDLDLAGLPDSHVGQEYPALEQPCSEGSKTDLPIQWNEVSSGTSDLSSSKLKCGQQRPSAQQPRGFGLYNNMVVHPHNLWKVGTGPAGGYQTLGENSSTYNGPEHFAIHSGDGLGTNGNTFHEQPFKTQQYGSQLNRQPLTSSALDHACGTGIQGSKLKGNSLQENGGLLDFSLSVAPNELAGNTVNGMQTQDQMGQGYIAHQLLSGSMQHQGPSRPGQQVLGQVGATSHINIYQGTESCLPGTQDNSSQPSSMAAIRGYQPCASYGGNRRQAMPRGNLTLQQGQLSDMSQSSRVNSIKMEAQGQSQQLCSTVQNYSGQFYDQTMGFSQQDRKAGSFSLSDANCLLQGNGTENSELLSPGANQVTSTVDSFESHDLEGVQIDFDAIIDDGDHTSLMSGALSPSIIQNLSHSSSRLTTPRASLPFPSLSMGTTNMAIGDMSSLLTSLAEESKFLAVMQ

| binding [1] | binding [2] | binding [3] | Substance |
| --- | --- | --- | --- |
| binds | binds | binds | Gli2 (endogenous) (from UniProt Q0VGT2 1-1544) |
| – | binds | binds | Gli3 (endogenous) (from UniProt Q61602 1-1583) |

Source: article PMC10879184
